Assay results from US20260183392A1, “METHODS AND KITS FOR DNA EDITING AND TREATING, AMELIORATING AND/OR PREVENTING CANCER” (FC IP Holdings, LLC, priority 2022, published 2026).
Some entries share one result that the patent states for a list of compounds.

Test system: RAB11A locus in iPSC
Experiment: GFP knock-in at RAB11A locus in iPSC (flow cytometry)
Format: cell-based
Conditions: treated for 1 hour after electroporation; cssDNA donor

COc1ccc([C@@H](O)c2cc(-c3ncnc4cc(N5CCOCC5)ccc34)c(F)cc2Cl)nn1 [M-3814]
increased knock-in efficiency compared to untreated controls: 200-300%
